Test results reported in article PMC6034817.

Chains of the proteins cited; added tags and fusions are not shown. Lines headed by an entry give the natural chain unless they say otherwise; changes in a name come on top. A line that says so, or that is headed by a name, gives the form on record, which may keep a tag or linker. Residues count along the entry.
UniProt P35998: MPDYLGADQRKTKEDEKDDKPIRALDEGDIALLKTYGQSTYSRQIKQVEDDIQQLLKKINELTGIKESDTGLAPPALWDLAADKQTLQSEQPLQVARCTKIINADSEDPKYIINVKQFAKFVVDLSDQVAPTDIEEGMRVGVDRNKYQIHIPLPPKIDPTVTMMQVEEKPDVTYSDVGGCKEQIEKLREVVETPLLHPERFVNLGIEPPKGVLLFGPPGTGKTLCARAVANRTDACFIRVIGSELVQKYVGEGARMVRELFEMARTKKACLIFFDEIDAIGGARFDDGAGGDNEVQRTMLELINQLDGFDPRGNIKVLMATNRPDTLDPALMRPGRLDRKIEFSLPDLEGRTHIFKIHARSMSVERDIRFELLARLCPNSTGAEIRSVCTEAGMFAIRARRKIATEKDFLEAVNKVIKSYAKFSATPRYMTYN
UniProt Q93009: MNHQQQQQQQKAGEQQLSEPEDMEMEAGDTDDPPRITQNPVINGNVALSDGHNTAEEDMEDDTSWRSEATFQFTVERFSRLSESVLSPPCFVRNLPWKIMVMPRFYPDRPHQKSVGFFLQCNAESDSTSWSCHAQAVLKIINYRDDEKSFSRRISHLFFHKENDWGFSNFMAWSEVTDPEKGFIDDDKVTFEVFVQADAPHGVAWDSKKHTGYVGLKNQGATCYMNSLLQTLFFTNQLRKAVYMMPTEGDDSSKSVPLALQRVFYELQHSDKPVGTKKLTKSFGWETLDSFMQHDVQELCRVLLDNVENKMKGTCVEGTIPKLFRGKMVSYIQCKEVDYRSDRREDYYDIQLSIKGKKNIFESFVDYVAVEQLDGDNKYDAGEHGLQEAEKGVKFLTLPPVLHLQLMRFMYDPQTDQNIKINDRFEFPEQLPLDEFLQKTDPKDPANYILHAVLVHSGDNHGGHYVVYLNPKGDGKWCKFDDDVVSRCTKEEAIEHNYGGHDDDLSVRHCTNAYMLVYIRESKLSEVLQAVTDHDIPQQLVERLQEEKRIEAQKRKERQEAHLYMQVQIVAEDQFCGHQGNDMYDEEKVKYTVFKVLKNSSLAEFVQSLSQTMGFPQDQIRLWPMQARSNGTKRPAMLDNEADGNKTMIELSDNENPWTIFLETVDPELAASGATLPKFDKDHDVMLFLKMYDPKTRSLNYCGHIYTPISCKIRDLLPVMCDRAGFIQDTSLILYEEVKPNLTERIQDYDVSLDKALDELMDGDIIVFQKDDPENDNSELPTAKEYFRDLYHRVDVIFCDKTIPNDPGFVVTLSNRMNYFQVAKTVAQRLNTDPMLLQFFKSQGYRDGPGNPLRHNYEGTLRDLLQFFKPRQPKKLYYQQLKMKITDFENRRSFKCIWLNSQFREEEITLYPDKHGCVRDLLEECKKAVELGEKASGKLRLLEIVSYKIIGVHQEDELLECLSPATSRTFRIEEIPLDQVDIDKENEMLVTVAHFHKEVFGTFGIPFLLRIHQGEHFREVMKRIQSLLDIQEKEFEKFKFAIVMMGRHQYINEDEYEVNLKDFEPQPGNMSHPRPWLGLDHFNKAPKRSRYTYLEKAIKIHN
UniProt O00487: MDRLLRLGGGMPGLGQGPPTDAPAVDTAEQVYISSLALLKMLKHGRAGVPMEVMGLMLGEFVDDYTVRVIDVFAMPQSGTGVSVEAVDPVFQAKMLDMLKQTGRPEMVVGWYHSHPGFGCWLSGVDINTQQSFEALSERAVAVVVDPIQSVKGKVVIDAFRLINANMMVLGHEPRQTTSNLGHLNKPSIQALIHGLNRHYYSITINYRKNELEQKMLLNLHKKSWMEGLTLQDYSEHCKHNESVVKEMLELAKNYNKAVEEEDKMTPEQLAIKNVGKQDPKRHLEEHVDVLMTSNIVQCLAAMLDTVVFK
UniProt P17980: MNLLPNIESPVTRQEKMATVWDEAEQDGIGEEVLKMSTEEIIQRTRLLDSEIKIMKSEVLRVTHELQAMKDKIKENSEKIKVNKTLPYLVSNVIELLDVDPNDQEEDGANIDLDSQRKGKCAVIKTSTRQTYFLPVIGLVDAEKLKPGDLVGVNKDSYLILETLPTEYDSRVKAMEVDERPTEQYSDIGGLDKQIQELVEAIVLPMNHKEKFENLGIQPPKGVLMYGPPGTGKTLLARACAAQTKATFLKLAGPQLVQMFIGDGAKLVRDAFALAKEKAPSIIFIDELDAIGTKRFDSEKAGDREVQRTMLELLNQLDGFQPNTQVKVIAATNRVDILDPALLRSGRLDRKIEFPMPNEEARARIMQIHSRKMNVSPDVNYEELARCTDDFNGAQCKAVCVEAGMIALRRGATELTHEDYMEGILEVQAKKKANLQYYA
UniProt Q9UNE7, residues 73-303: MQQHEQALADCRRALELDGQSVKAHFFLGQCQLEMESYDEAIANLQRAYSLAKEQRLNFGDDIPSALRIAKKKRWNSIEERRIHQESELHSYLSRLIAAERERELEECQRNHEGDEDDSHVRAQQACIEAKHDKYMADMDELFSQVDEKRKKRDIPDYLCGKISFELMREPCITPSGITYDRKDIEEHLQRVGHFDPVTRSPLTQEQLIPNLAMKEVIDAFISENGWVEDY
UniProt P51784: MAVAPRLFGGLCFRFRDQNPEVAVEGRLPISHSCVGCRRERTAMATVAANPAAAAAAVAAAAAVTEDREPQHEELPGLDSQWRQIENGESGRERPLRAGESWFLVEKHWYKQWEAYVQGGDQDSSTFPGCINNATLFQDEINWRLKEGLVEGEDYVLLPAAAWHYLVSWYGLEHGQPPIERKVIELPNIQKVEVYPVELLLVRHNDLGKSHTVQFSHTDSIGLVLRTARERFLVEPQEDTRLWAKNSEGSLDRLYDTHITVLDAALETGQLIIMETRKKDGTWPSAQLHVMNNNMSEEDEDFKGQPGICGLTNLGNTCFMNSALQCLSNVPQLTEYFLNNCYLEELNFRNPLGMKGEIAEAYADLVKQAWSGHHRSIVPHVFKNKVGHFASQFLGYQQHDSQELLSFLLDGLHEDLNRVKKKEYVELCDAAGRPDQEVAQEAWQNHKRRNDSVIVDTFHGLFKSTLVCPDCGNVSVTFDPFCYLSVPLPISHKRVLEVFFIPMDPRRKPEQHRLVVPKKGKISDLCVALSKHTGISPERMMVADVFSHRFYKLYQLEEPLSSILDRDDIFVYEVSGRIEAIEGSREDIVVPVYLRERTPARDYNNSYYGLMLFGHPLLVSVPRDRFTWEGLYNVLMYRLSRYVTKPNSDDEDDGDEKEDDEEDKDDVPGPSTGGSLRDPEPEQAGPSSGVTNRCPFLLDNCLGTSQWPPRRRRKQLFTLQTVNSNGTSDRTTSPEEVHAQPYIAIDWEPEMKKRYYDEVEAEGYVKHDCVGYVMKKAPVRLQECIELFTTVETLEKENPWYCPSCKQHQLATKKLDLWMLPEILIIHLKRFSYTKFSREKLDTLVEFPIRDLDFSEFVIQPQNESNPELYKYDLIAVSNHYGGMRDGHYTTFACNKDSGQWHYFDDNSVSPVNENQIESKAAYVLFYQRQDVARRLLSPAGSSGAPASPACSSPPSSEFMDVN
UniProt P62191: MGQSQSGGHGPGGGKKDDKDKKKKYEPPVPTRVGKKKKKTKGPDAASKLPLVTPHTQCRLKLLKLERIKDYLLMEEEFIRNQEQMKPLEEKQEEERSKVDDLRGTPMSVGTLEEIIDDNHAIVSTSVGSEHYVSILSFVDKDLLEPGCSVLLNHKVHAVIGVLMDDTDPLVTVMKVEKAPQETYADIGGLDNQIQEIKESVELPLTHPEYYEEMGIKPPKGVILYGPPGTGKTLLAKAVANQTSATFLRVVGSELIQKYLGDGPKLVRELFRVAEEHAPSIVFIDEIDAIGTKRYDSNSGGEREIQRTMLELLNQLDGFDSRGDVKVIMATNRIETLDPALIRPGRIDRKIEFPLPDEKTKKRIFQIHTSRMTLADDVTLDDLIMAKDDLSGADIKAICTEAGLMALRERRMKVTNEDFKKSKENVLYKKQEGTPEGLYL
26S proteasome non-ATPase regulatory subunit 1, Isoform 2 (Q99460-2, form named): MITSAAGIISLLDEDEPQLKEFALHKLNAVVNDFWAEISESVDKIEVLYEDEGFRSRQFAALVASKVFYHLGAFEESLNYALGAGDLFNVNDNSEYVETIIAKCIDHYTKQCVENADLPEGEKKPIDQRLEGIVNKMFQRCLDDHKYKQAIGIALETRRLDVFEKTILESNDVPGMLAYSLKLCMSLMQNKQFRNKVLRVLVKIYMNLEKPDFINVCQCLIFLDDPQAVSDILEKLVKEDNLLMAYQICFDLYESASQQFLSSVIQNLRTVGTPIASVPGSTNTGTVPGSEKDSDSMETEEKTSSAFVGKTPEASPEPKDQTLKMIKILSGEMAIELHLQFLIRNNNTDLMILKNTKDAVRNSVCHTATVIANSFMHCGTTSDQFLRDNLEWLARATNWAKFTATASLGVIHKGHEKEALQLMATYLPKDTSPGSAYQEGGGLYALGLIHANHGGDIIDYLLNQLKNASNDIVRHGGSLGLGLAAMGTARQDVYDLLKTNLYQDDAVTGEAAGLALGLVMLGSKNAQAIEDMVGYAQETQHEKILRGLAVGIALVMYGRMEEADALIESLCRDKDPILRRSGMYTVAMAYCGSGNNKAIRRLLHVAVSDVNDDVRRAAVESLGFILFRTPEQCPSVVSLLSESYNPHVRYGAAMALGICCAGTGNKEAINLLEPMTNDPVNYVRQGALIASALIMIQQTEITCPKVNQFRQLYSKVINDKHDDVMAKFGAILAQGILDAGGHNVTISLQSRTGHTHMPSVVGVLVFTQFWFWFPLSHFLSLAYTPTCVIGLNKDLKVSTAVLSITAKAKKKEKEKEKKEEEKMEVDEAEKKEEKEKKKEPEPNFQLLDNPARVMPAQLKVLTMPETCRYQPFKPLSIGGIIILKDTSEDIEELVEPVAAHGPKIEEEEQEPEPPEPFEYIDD
UniProt O00232: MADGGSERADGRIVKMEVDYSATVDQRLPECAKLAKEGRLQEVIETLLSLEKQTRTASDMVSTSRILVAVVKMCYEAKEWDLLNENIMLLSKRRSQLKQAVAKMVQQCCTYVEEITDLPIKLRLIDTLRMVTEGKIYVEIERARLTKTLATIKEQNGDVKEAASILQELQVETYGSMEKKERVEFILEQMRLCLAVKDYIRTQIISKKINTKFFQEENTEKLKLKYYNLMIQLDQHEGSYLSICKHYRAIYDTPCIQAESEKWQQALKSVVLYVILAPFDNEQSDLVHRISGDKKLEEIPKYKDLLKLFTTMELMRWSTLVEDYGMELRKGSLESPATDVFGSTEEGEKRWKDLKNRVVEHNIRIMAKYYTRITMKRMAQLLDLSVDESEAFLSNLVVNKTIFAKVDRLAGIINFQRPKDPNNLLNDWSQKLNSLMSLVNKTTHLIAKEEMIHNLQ
UniProt P08238: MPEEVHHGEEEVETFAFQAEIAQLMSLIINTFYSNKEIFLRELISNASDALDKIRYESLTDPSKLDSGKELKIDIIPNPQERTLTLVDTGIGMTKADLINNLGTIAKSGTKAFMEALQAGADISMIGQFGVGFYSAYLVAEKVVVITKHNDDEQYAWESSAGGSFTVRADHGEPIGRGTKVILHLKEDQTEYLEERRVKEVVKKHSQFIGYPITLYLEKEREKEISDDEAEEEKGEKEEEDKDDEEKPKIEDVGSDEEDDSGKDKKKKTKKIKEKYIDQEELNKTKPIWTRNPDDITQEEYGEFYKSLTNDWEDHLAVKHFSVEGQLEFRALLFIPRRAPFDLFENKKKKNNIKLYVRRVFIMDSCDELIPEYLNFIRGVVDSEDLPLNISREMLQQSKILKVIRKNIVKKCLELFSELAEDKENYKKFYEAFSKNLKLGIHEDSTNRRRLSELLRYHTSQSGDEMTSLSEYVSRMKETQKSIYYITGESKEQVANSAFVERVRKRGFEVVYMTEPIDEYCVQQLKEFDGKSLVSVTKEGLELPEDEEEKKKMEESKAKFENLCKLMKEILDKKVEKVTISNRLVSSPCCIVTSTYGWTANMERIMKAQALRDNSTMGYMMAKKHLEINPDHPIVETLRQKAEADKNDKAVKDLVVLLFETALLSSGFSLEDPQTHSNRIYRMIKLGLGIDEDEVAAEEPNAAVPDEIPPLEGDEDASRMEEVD

T1: Human ALDH1L1 (10-formyltetrahydrofolate dehydrogenase), purified recombinant (human) (UniProt O75891)
T1 sequence: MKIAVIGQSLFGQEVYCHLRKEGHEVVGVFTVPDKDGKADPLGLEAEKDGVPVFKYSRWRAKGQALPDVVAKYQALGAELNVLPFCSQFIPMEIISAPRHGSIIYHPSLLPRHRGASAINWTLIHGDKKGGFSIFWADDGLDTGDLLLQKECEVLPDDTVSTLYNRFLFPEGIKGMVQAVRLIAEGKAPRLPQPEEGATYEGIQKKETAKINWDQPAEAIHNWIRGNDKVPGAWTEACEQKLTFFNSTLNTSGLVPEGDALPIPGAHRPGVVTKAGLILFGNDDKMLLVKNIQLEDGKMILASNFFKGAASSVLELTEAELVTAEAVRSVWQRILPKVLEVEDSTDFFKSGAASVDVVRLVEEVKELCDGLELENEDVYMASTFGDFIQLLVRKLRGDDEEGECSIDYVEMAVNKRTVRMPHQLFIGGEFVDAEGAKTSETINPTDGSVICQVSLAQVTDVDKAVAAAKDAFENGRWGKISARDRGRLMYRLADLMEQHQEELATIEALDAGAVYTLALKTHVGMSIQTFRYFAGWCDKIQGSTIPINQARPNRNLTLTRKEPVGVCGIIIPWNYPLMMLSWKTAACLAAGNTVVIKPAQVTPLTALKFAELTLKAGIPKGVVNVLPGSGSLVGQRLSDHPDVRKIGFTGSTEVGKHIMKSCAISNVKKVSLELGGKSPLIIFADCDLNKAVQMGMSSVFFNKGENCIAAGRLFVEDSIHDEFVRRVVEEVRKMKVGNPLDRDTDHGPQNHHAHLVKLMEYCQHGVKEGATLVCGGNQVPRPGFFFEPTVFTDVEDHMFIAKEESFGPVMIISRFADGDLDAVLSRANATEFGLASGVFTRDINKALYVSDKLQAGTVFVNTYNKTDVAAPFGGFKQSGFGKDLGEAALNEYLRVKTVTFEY

B1: Isoform 2 of Ubiquitin carboxyl-terminal hydrolase 47 (enzyme, UniProt Q96K76-2 1-1287)
chain: MVPGEENQLVPKEAPLDHTSDKSLLDANFEPGKKNFLHLTDKDGEQPQILLEDSSAGEDSVHDRFIGPLPREGSGGSTSDYVSQSYSYSSILNKSETGYVGLVNQAMTCYLNSLLQTLFMTPEFRNALYKWEFEESEEDPVTSIPYQLQRLFVLLQTSKKRAIETTDVTRSFGWDSSEAWQQHDVQELCRVMFDALEQKWKQTEQADLINELYQGKLKDYVRCLECGYEGWRIDTYLDIPLVIRPYGSSQAFASVEEALHAFIQPEILDGPNQYFCERCKKKCDARKGLRFLHFPYLLTLQLKRFDFDYTTMHRIKLNDRMTFPEELDMSTFIDVEDEKSPQTESCTDSGAENEGSCHSDQMSNDFSNDDGVDEGICLETNSGTEKISKSGLEKNSLIYELFSVMVHSGSAAGGHYYACIKSFSDEQWYSFNDQHVSRITQEDIKKTHGGSSGSRGYYSSAFASSTNAYMLIYRLKDPARNAKFLEVDEYPEHIKNLVQKERELEEQEKRQREIERNTCKIKLFCLHPTKQVMMENKLEVHKDKTLKEAVEMAYKMMDLEEVIPLDCCRLVKYDEFHDYLERSYEGEEDTPMGLLLGGVKSTYMFDLLLETRKPDQVFQSYKPGEVMVKVHVVDLKAESVAAPITVRAYLNQTVTEFKQLISKAIHLPAETMRIVLERCYNDLRLLSVSSKTLKAEGFFRSNKVFVESSETLDYQMAFADSHLWKLLDRHANTIRLFVLLPEQSPVSYSKRTAYQKAGGDSGNVDDDCERVKGPVGSLKSVEAILEESTEKLKSLSLQQQQDGDNGDSSKSTETSDFENIESPLNERDSSASVDNRELEQHIQTSDPENFQSEERSDSDVNNDRSTSSVDSDILSSSHSSDTLCNADNAQIPLANGLDSHSITSSRRTKANEGKKETWDTAEEDSGTDSEYDESGKSRGEMQYMYFKAEPYAADEGSGEGHKWLMVHVDKRITLAAFKQHLEPFVGVLSSHFKVFRVYASNQEFESVRLNETLSSFSDDNKITIRLGRALKKGEYRVKVYQLLVNEQEPCKFLLDAVFAKGMTVRQSKEELIPQLREQCGLELSIDRFRLRKKTWKNPGTVFLDYHIYEEDINISSNWEVFLEVLDGVEKMKSMSQLAVLSRRWKPSEMKLDPFQEVVLESSSVDELREKLSEISGIPLDDIEFAKGRGTFPCDISVLDIHQDLDWNPKVSTLNVWPLYICDDGAVIFYRDKTEELMELTDEQRNELMKKESSRLQKTGHRVTYSPRKEKALKIYLDGAPNKDLTQD

Target: T1, Human ALDH1L1 (10-formyltetrahydrofolate dehydrogenase), purified recombinant (human)
Assay: affinity purification with mass spectrometry; purified recombinant human ALDH1L1 (about 4 mg) held on folate (5-formyl-THF) affinity resin; A549 lysate loaded in 20 mM Tris-HCl pH 7.8, 150 mM NaCl, 10 mM 2-mercaptoethanol, 0.1% Triton X-100; washed with loading buffer and 0.5 M KCl; 2.0 M KCl eluate analysed by LC/MS-MS; proteins found on a column without ALDH1L1 excluded; only the target purified

Molecule | binding
26S protease regulatory subunit 7 (from UniProt P35998 1-433) | binds
Isoform 1 of Heat shock protein HSP 90-alpha (from UniProt P07900 1-732) | binds
Ubiquitin carboxyl-terminal hydrolase (USP7) (from UniProt Q93009 1-1102) (enzyme) | binds
26S proteasome non-ATPase regulatory subunit 14 (from UniProt O00487 1-310) | binds
26S protease regulatory subunit 6A (from UniProt P17980 1-439) | binds
Isoform 2 of STIP1 homology and U box-containing protein 1 (STUB1, E3 ubiquitin-protein ligase CHIP) (from UniProt Q9UNE7-2 1-231) (enzyme) | binds
26S protease regulatory subunit 6B Isoform 2 (from UniProt P43686-2 1-387) | binds
Ubiquitin carboxyl-terminal hydrolase 11 (from UniProt P51784 1-963) (enzyme) | binds
26S protease regulatory subunit 4 (from UniProt P62191 1-440) | binds
26S proteasome non-ATPase regulatory subunit 1, Isoform 2 (from UniProt Q99460-2 1-922) | binds
26S proteasome non-ATPase regulatory subunit 12 (from UniProt O00232 1-456) | binds
Ubiquitin specific protease 9, X-linked isoform 4 (human (endogenous in A549)) (enzyme) | binds
Heat shock protein HSP 90-beta (from UniProt P08238 1-724) | binds
B1 | binds

No constants are given. Whether binding was seen depends on the method and setting. Binding seen in cells or lysates may run through a third protein. A yes stands for co-enrichment or nearness to the bait. Other partners may have been found.
